{
  "source": "paper PMC7862700",
  "note": "The list shows a part of the results, in another mix than the full data. At the low end of the ranking, values are background and their order means little.",
  "data": [
    {"biological_target": "T1, ETV3L (UniProt Q6ZN32)", "T1 sequence": "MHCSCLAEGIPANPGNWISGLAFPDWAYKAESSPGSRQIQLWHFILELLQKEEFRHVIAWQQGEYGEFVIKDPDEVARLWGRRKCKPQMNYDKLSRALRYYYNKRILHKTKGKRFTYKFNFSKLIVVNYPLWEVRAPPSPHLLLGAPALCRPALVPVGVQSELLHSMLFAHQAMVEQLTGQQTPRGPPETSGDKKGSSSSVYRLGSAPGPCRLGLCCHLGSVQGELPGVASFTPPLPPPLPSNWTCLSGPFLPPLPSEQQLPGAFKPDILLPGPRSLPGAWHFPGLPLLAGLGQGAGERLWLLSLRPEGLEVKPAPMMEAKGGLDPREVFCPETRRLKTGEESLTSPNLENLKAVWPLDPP", "test": "DAPPL (digital affinity profiling via proximity ligation, sequencing)", "conditions": "10 mM Tris-HCl pH 7.5, 50 mM NaCl, 1 mM DTT, 4% glycerol, room temperature, 30 min; GST-TFs on glutathione beads, 16-mer random dsDNA library, 0.1% …; high values mean tight binding; double strand, one strand shown; scale: fold enrichment (6-mer frequency, TF over GST control)", "values": [
      {"sequence": "CGACTC", "binding signal": 1.36},
      {"sequence": "AAGATA", "binding signal": 1.09},
      {"sequence": "CTCAGA", "binding signal": 1.06},
      {"sequence": "GCTAAT", "binding signal": 1.13},
      {"sequence": "TGCTGT", "binding signal": 0.998},
      {"sequence": "GCTCAG", "binding signal": 1.16},
      {"sequence": "TTATCA", "binding signal": 1.15},
      {"sequence": "CCTCAC", "binding signal": 1.19},
      {"sequence": "CATCGA", "binding signal": 1.21},
      {"sequence": "CTCATT", "binding signal": 1.47},
      {"sequence": "CTCAAA", "binding signal": 1.16},
      {"sequence": "GTCTTT", "binding signal": 1.27},
      {"sequence": "CTAAAC", "binding signal": 1.18},
      {"sequence": "CGCTAC", "binding signal": 1.17},
      {"sequence": "TACCCT", "binding signal": 1.18},
      {"sequence": "AACAGG", "binding signal": 1.15},
      {"sequence": "ATTGCG", "binding signal": 1.29},
      {"sequence": "GAAAAG", "binding signal": 1.09},
      {"sequence": "TCGACC", "binding signal": 1.33},
      {"sequence": "TCACGA", "binding signal": 1.04},
      {"sequence": "AGCTAA", "binding signal": 1.05},
      {"sequence": "ACTCTC", "binding signal": 1.49},
      {"sequence": "AAGCTC", "binding signal": 1.2},
      {"sequence": "TACGTT", "binding signal": 1.32},
      {"sequence": "CGTCCC", "binding signal": 1.3},
      {"sequence": "TCTGCA", "binding signal": 1.42},
      {"sequence": "GACCTA", "binding signal": 1.31},
      {"sequence": "TCCGGA", "binding signal": 2.42},
      {"sequence": "ACTAGC", "binding signal": 1.16},
      {"sequence": "GTTGCA", "binding signal": 1.19},
      {"sequence": "TTGAAT", "binding signal": 1.01},
      {"sequence": "AACTTC", "binding signal": 2.51},
      {"sequence": "GACCTG", "binding signal": 1.33},
      {"sequence": "TTTATT", "binding signal": 1.44},
      {"sequence": "GTTAAC", "binding signal": 1.14},
      {"sequence": "TGCTAA", "binding signal": 1.25},
      {"sequence": "CCGGTA", "binding signal": 1.46},
      {"sequence": "CGATAC", "binding signal": 1.18}
    ]}
  ]
}
